# Tested on: abdominal skin of C.R rats
# Test: Rat skin test: intradermal injection of peptide, then intradermal compound 48/80 or vehicle, wheal area
# Format: in vivo
# Settings: 0.5 hour incubation; Fenistil Gel 100 mg t.a., Ceterizine 0.01 mg/ml i.d., Cromoglycate 20 mg/ml i.d., Peptide 2 10 mg/ml i.d.; no treatment 115.5 ± 30.4
# Method: The hair of the abdominal area of C.R rats was carefully removed with an electric clipper and a depilatory cream. In each animal the abdominal area was divided to six equal zones that were marked by pen. Each zone was either subjected to peptide treatment or served as a control. In the first set of experiments, the peptide was topically applied as follows: 36 μl of peptide solution at the indicated concentration (dissolved in 72% DMSO in saline) was applied on desired abdominal area. […]
# Skin tests were performed 0.5, 1 or 2 hours following application of the peptide. […] The allergic response was monitored by outlining with a marker the wheals which developed in response to allergen or saline treatment.
# To quantitate the skin test results, the marker signs were transferred onto paper with scotch tape. The areas of the wheals were outlined and calculated by a computerized planimeter (Hewlett-Packard), as previously described (Sussman et al., 1982).
# Tables 10-16 presents the mean areas of the wheals, which developed in response to intradermal injection of each of the tested peptides, followed by either compound 48/80 or DDW injection applied after 0.5 or 1 hour. […] Mean wheal areas were calculated for each treatment and the significance of the results was determined using student's T-test. […]
smiles,measurement,value
"O=C(O)COCCN1CCN(C(c2ccccc2)c2ccc(Cl)cc2)CC1 (stereo not shown) [Ceterizine, reference compound]","Mean wheal size, compound 48/80-induced cutaneous reaction",86.6 ± 23.4 mm^2
